Publication PMC3749157
Substitutions are numbered along the chain they refer to. These are yes or no findings as the source states them, for the method shown. Some binding calls cover weakened binding; strength is not graded here.

By UniProt entry, the sequences of proteins in these tests, tags left out. Residues count along the entry.
UniProt Q9P126, residues 55-229: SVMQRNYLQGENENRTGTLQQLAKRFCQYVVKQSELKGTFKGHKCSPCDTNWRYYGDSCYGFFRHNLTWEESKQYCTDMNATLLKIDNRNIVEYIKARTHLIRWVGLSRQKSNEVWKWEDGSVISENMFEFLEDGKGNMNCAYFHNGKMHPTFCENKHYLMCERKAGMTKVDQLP

Key:
Experiment in all cases: flow cytometry on cells; CHO/mock, CHO/Aggrus, CHO/Aggrus-G45A and CHO/Aggrus-D49A cells treated with mouse IgG Fc-conjugated human CLEC-2 (4 µg/ml), then Alexa Fluor 488-conjugated anti-mouse IgG; only the binder purified
[1] = target: T1, human Aggrus D49A, on CHO/Aggrus-D49A cells (human) (UniProt Q86YL7)
T1 sequence: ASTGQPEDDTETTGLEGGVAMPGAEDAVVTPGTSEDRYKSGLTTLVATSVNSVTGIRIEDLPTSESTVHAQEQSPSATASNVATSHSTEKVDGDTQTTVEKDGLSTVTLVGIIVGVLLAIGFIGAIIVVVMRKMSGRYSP

[2] = target: T2, human Aggrus G45A, on CHO/Aggrus-G45A cells (human) (UniProt Q86YL7)
T2 sequence: T1 sequence with G23A, A27D

[3] = target: T3, human Aggrus, wild type, on CHO/Aggrus cells (human) (UniProt Q86YL7)
T3 sequence: T1 sequence with A27D

- binding [1]: binds
- binding [2]: binds
- binding [3]: binds
Substance: mouse IgG Fc-conjugated recombinant human CLEC-2 protein (from UniProt Q9P126 55-229) (Fc fusion)
